No constants are given. Whether binding was seen depends on the method and setting. A result given as binding can be weak or reduced; the word gives no strength.
Target: Nse1 with the vRING domain deleted, in pGBKT7 (S. pombe)
Test: two-hybrid; GAL4-based; pGADT7 or pACT2 (activation domain) and pGBKT7 (DNA-binding domain) plasmids co-transformed into S. cerevisiae PJ69-4a; growth on media lacking Leu, Trp and His (without or with 1 mM 3-aminotriazole) or adenine; 3 days at 30 °C

binding: binds
B1: Nse4, complete coding sequence, in pACT2 (protein, UniProt Q6BDR8 1-300)
chain: MSSIDKRDLRKRYRNLINKVQESRLELVDEENNNLYETITTANDLFSSVDAPTEATLDALLLTKTVDLASIKARQLHIGRPKFNIELFTKNIKQFLNYPTSHSNVTRIQEIDTAWSRLGKLASNCEKQPASLNLMVGPLSFRKKERNIQRRERLQKAPNVLTQPTMLNERNITTQENNTTKNVLHISRLLQAHQPVNFLKFITNPQSYPQTVENLFYVSFLFKEGKAALVENESGILMLETRIPPTDDQVVAGEIRNIQLVLDMTMDLYENIIKEYNIKESIIPTRAPVETSTNSNTWYG

Reference: article PMC8750328
